Measurements as given in patent US9688736B2 (Eli Lilly and Company, priority 2013, dated 2017).
Square brackets hold non-standard residues; d marks the D form. Ends that are not written are not given here. Aib = CC(C)(N)C(=O)O

Experiment: general procedure: Fmoc solid-phase peptide synthesis; Fmoc-Glu(OtBu)-Wang polystyrene resin (Advanced ChemTech), approximately 0.9 mmol/g; DIC/HOBt
Conditions: whole synthesis, 220 nm, scale 0.125 mmols, TFA salt converted to acetate salt

## YSHGTFTSDVSKYLD[Aib]KKAAEFVAWLLEE
  final purity (method not given): >95%
